Assay results as given in the supplement of paper PMC10849652.
This is one part of the list.

Sequences of proteins named here, by UniProt entry; tags and fusion partners are left off. A change or cut given only in a name is not applied to a line headed by its entry.
UniProt Q9UHV9, whole entry, looked up: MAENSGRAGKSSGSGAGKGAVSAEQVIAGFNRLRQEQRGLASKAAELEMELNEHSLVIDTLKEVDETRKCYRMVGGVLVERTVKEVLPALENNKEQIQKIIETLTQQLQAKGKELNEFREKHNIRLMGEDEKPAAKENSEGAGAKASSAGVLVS
UniProt Q00169: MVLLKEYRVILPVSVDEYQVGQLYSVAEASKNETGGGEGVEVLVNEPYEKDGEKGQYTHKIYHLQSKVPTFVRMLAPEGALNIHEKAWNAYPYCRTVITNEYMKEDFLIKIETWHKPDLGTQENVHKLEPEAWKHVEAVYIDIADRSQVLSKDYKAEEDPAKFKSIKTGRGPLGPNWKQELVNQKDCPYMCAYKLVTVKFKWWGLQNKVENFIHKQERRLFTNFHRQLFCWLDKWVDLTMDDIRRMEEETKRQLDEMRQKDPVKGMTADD
UniProt P16885: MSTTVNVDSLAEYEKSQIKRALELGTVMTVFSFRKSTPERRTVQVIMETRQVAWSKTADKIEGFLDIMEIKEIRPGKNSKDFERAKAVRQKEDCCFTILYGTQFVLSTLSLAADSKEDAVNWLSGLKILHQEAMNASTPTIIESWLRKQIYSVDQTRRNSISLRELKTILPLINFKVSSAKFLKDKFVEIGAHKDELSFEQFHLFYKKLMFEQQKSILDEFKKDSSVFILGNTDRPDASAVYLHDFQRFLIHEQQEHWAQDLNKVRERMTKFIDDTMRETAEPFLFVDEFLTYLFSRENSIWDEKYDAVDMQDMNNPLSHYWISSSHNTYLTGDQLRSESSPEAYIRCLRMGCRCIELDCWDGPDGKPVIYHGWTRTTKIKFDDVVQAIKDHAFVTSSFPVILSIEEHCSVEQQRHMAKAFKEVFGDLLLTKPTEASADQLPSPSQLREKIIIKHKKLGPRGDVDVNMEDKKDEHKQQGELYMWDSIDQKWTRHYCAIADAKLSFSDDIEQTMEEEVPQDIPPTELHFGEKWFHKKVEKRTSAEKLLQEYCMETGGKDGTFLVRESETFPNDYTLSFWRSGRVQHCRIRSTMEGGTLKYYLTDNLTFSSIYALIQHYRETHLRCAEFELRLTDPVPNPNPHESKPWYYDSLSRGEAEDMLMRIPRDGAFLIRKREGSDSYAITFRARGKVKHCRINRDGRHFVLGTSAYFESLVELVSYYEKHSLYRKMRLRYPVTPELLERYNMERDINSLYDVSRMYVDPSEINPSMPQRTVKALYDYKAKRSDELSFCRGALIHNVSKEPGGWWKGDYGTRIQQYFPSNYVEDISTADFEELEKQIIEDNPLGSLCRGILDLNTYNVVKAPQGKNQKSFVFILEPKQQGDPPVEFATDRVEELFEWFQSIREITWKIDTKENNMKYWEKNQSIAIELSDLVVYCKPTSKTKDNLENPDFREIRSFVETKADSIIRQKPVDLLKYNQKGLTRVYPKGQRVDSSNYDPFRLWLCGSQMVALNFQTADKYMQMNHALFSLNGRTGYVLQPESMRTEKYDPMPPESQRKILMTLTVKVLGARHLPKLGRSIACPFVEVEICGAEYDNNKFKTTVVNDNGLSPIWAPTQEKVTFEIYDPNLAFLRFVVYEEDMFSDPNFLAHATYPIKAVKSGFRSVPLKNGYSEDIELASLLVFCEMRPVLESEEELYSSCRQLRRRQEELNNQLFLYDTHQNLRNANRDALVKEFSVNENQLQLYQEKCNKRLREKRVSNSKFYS
UniProt P60673: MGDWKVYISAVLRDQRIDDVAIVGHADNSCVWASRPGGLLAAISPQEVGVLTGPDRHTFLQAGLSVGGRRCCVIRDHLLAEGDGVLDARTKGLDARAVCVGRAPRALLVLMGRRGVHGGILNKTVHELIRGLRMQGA
UniProt O60825: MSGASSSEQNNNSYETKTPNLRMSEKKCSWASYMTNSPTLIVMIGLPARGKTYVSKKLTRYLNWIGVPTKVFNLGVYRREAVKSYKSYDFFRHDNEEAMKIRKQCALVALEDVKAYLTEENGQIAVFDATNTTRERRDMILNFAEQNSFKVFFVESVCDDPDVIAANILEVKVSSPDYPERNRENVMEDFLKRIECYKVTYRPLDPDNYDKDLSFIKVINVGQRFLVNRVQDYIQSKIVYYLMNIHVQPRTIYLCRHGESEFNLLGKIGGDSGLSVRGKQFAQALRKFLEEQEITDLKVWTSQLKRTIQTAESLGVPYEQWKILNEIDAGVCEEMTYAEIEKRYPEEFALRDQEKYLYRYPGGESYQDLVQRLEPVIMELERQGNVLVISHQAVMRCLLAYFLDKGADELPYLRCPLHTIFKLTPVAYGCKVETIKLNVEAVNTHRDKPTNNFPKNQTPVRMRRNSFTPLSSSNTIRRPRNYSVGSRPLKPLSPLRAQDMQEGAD
UniProt Q99755: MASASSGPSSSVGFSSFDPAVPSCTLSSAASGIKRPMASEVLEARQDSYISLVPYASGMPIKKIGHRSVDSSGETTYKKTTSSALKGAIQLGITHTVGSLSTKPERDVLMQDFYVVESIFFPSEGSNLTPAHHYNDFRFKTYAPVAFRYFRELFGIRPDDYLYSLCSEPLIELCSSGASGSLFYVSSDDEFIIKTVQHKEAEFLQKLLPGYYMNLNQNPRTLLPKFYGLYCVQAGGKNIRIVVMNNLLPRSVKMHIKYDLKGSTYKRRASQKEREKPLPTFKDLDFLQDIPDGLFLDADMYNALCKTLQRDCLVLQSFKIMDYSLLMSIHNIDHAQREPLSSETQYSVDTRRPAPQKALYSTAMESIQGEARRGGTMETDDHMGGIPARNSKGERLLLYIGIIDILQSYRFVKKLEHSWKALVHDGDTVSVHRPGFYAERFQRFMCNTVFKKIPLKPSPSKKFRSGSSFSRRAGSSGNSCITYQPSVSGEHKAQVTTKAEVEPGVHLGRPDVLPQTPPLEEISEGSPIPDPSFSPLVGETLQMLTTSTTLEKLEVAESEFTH
UniProt Q8TBF5: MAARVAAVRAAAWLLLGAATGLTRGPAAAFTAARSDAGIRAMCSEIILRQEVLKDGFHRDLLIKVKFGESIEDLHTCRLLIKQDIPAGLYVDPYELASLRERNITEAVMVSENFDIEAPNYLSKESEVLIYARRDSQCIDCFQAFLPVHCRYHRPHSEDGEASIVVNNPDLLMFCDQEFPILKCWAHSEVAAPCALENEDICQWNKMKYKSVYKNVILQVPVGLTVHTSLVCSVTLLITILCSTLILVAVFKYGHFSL
UniProt A6NDG6: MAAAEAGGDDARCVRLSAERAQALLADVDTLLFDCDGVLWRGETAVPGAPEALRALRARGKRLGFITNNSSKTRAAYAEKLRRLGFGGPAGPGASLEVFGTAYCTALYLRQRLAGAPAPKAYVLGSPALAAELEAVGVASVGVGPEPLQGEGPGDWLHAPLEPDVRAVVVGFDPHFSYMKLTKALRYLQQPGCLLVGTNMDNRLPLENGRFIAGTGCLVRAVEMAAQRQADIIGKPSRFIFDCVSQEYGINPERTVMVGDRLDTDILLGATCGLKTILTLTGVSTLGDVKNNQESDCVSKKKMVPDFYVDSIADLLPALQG
UniProt O43175: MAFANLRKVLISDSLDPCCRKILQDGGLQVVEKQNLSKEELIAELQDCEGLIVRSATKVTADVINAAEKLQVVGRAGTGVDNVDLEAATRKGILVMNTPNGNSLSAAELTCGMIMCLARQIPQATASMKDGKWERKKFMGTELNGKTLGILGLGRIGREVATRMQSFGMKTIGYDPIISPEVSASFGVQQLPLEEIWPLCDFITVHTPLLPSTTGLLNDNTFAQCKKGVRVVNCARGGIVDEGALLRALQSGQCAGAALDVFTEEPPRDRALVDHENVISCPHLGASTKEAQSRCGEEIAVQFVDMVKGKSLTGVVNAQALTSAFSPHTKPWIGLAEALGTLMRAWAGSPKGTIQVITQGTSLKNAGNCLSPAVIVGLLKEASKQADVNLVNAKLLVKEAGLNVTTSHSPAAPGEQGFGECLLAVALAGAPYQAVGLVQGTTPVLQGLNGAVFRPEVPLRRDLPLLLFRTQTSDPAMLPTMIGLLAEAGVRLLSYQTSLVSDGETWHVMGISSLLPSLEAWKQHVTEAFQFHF
UniProt Q8IXK0: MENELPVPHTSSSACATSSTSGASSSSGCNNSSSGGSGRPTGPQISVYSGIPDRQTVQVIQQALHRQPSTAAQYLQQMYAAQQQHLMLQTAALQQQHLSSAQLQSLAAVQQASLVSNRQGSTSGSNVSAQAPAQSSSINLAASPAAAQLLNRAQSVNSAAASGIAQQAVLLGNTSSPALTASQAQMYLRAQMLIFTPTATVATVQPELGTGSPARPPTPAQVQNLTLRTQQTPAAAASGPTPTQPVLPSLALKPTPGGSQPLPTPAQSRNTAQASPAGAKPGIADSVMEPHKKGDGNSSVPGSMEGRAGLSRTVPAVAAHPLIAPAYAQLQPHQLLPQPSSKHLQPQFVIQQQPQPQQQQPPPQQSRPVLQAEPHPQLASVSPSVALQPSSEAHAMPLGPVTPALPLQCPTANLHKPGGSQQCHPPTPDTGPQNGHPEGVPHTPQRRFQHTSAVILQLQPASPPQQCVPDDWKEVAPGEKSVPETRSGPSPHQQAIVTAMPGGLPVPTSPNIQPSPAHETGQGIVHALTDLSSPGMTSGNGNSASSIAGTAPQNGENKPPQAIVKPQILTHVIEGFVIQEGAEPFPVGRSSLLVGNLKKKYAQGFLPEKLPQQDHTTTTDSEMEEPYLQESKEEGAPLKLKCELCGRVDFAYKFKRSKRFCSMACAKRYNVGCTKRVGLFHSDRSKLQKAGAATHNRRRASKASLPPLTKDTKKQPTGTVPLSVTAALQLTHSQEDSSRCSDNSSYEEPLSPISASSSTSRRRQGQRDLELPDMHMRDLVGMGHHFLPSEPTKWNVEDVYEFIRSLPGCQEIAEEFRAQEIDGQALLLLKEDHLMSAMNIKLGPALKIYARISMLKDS
UniProt Q4KWH8: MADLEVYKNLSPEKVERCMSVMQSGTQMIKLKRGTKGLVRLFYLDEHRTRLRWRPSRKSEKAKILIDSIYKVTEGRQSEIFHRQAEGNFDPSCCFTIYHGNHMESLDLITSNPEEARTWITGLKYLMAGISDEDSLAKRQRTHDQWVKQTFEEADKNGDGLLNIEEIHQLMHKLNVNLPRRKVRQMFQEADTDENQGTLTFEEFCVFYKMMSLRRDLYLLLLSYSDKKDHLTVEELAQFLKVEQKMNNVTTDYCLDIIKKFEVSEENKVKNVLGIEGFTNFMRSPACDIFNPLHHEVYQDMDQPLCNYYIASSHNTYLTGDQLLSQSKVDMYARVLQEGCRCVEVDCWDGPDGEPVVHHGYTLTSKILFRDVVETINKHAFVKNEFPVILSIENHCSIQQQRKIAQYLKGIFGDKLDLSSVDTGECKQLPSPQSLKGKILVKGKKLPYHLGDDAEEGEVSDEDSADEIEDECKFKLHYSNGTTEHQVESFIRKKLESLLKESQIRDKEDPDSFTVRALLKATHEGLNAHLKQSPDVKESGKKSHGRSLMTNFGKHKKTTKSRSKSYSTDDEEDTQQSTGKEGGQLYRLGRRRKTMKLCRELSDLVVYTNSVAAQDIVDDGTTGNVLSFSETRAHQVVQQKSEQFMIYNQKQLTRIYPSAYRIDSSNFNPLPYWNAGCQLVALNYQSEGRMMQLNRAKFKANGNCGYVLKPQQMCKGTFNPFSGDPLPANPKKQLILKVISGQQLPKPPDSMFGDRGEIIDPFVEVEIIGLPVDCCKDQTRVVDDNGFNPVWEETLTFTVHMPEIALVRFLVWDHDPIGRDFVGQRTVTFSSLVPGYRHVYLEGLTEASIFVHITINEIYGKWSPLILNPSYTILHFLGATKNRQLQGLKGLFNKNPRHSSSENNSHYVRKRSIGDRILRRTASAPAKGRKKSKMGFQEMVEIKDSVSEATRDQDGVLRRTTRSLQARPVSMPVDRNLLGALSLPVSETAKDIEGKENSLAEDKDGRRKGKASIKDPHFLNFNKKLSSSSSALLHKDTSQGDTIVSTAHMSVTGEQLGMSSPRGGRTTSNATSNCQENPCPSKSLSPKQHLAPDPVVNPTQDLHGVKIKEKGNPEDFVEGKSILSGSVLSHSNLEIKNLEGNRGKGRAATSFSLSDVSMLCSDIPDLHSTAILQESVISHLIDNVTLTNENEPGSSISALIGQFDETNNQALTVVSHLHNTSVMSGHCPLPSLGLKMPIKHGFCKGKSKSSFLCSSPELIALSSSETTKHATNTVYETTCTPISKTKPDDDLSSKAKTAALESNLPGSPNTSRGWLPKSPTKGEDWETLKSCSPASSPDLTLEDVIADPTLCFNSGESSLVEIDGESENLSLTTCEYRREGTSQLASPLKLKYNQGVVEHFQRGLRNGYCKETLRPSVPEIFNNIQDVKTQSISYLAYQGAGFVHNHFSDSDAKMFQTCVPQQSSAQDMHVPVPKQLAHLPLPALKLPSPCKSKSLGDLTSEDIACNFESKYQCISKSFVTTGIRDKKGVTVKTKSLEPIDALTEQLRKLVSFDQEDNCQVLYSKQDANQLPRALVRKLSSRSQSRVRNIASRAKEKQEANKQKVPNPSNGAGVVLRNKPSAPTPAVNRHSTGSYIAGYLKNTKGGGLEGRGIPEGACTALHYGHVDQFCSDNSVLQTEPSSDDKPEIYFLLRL

Compound: c1cn2cc(-c3ccc4cn[nH]c4c3)nc(Nc3ccc(N4CCOCC4)cc3)c2n1 [entospletinib]
Experiment: log2 fold change, soluble protein after heating vs DMSO (PISA); higher = thermal stabilisation; K562 cells, 10 uM, 30 min; active = over 0.2 and 3.5 SD of the protein, either way, in both replicates (recomputed)
How it was run: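 Quantification of soluble protein used TMTpro 16plex LC-MS/MS, with channel sums equalised. Samples were the supernatant after 21,000xg for 90 min of pooled aliquots from K562 cells (2×10^6 cells/mL) treated with 10 μM compound for 30 min, heated for 3 min over 48°C-58°C, and extracted in PBS with 0.5% NP-40 at 4°C. Values, from duplicates, describe thermal stability against control samples on a log2 fold-change scale.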

Target | log2 fold change
PI4KB (UniProt Q9UBF8) | inactive: 0.116
PGRMC1 (UniProt O00264) | inactive: 0.073
PFDN2 (UniProt Q9UHV9) | inactive: 0.002
PKLR (UniProt P30613) | inactive: -0.044
PIEZO1 (UniProt Q92508) | inactive: 0.022
PITPNA (UniProt Q00169) | inactive: -0.058
PHF19 isoform 2 (UniProt Q5T6S3) | inactive: -0.091
PLD1 (UniProt Q13393) | inactive: -0.036
PHACTR2 isoform 4 (UniProt O75167) | inactive: -0.007
PLCG2 (UniProt P16885) | inactive: -0.042
PHACTR4 isoform 2 (UniProt Q8IZ21) | inactive: 0.02
PIGL (UniProt Q9Y2B2) | inactive: -0.021
PGS1 (UniProt Q32NB8) | inactive: -0.124
PFN3 (UniProt P60673) | inactive: -0.295
PFN1 (UniProt I3L3D5) | inactive: 0.25
PIGS (UniProt Q96S52) | inactive: 0.005
PFKFB2 (UniProt O60825) | inactive: -0.028
PKHD1 (UniProt P08F94) | inactive: 0.072
PIP5K1A (UniProt Q99755) | inactive: -0.004
PFN1 (UniProt P07737) | inactive: -0.028
PIGU (UniProt Q9H490) | inactive: 0.019
PIGK (UniProt Q92643) | inactive: 0
PIN1 (UniProt Q13526) | inactive: -0.017
PIGX isoform 2 (UniProt Q8TBF5) | inactive: -0.09
PFDN4 (UniProt Q9NQP4) | inactive: 0.046
PGP (UniProt A6NDG6) | inactive: 0
PHKB isoform 3 (UniProt Q93100) | inactive: -0.04
PHGDH (UniProt O43175) | inactive: 0.004
PHC2 isoform 5 (UniProt Q8IXK0) | inactive: -0.006
PLCH1 (UniProt Q4KWH8) | inactive: -0.037

Given field by field: part of the list above.
PFN1 (UniProt I3L3D5)
  log2 fold change: inactive: 0.25
PFN1 (UniProt P07737)
  log2 fold change: inactive: -0.028
